Experimental data as given in patent publication EP0344995A2, “Method for inhibiting loss of cognitive functions employing a calcium channel blocker alone or in combination with an ace inhibitor” (E.R. SQUIBB & SONS, INC., priority 1988, dated 1989).
At least one structure is not confirmed: it was looked up by name or label, or the drawing left a doubt.

System: Adult male Sprauge-Dawley rats
Experiment: Extinction of conditioned avoidance response (CAE) in a shuttle box
Format: in vivo
Settings: 10 mg/kg and 30 mg/kg i.p. on the 2 days prior to testing and 1 hour before it, extinction tested during 14 days vs saline control
Protocol: Adult male Sprauge-Dawley rats (Charles River, Wilmington, MA), age 25 weeks and weighing 350-400 g, are separately housed in stainless steel cages with continuous access to food and water, a 12-hour light-dark cycle, and constant room temperature of 22° to 24 C. All testing took place approximately 6 hours into the dark component of the light-dark cycle and was conducted in a dimly lighted soundproof room using a standard shuttle box device ([…] Valley Electronics #146-04), a plexiglass chamber (50 x 20 x 20 cm) divided by a center barrier 7 cm in height. The conditioned stimulus consisted of a 10-second tone provided by a Sonlert mounted in the midpoint of the ceiling of the chamber. Floor current of 0.8 mA was delivered by a constant current shocker-scrambler ([…] Valley Electronics #133-33). The day before the initiation of training each animal was allowed to explore the experimental chamber for 10 minutes without any tone or shock. Training was conducted for 15 days following the day of experimental chamber exploration. Each animal received 20 trials per day on a 30-second variable interval schedule. No drug treatment was administered during the training period. […] Automatic counters recorded the number of avoidance responses, escapes, and intertrial crossings, while a running time meter recorded the total shock duration for each animal. […]

## CCC(=O)O[C@@H](O[P@](=O)(CCCCc1ccccc1)CC(=O)N1C[C@H](C2CCCCC2)C[C@H]1C(=O)O)C(C)C [fosinopril]
  protective effects on memory of previously learned tasks (rate of shuttle extinction): possess protective effects on memory of previously learned tasks
